Literature values, collected in US20070286806A1, “Methods and Compositions for Modulating a Steroid Receptor” (Mount Sinai Hospital, priority 2004, published 2007).
At least one structure is not confirmed: it was looked up by name or label, or the drawing left a doubt.

Test system: progesterone receptor
Settings: pregnant women (as in animals); cited from earlier work

CC#C[C@]1(O)CC[C@H]2[C@@H]3CCC4=CC(=O)CCC4=C3[C@@H](c3ccc(N(C)C)cc3)C[C@@]21C [RU486]
effect of administration to pregnant women: induction of labour
